Z-score data for 104 sequences are collected here from PubChem BioAssay AID1347423 (Functional Genomics Laboratory (NCATS/FGL), 2020).

Among all 52,000 sequences or so, about 210 (0.4%) were called active.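 Rule for the calls: active = gene whose silencing raises cell survival under the drug, median off-target-corrected z-score across its silencing RNAs 2 or more; inactive = the rest.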 Some of the results follow.

A short description of the experiment: Resistance to Poly (ADP-Ribose) Polymerase inhibitor: Gene Identification via Genome-wide siRNA Screen. The conditions noted are these: mouse BRCA2 R2336H ES cells, olaparib, CellTiter-Glo viability; hits give high values. An outline of the steps: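 Mouse BRCA2 R2336H ES cells were reverse-transfected with siRNA (20 nM final), treated at 48 h with 500 nM olaparib, and read by CellTiter-Glo after 72 h. Scores: MAD-based z per siRNA, median per gene, seed off-target correction.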
(In general: ATP-based viability assays read luminescence as a measure of living cells.)
Regarding CGCAGUCACACCUUGUUAUTT against Cds2, the z-score is inactive: 1.15.

Consider “CCGUUAAGGUUGAUCUAAUTT against 2810027O19Rik”, for which the z-score is inactive: -0.419. For the sequence GGUUUCCUUUUUGUUCAUUTT against Dlgh3, the z-score is inactive: 0.128.

For the sequence GGGAAAAAUAUCAGUUAUGTT against Khdrbs1, the z-score was active: 1.08. With GGUGCUAAAAACUCAAGUCTT against Tctex1, the z-score was inactive: -0.513. Regarding GGGCGAGAAGUUUAAACUUTT against Dnaja4, the z-score was inactive: -0.692.

For the sequence GGUAUUGUGGCCAGUAUUUTT against Ptdss2, the z-score was inactive: -0.247. In the case of GCUACAGAUACCUCGGAUATT against Psme1 it was inactive: -1.15. As for GGGAAAUGGUGAAUCACAGTT against Dpp8, the z-score was inactive: 0.967. For the sequence GGAAGACUAUUUUCUGUAUTT against Gabarapl1, the z-score is inactive: 1.13. For CCUGAUAUACCAGCCACCGTT against Pxmp3, the z-score was inactive: 0.939. Turning to GGAGCUGUUUACCAUGUCATT against Rgl1, the z-score was inactive: -1.19. Turning to “UGCCGCUGCUGAUCCUUACTT against D11Bwg0517e”, the z-score was inactive: -0.161. Consider “GGUAACCUAGUGUAAGUUUTT against 2410024A21Rik”, for which the z-score was inactive: -1.12. The value for GGACAUCGGCUACAACACCTT against Fzd10 was inactive: 0.716; that for “CGCCUUAAACGAAGCUGCUTT against 1700034E13Rik” was inactive: 0.557; that for GGCAUGCAGGGUAUUGCGUTT against Chtf18 was inactive: 0.0837. As for CCAGAUCCGGACAAUUGACTT against Ppp4c, the z-score was inactive: 1.13.

As for GGAAGCUACGCUCAAUGAGTT against Dkk3, the z-score is inactive: -0.231. On to GGUUAUUCUGGCUAUGGGCTT against Taf15, for which the z-score was inactive: 1.07.

Regarding GGUGAGCAAGUCGAAGAGATT against Igsf3, the z-score was inactive: -1.28.

In the case of “GGUAACGAUCCACUUAAAGTT against 0610040J01Rik”, the z-score was inactive: 0.159. Turning to “GGUACUGAUCAGCAAGACGTT against 4921526F01Rik”, the z-score is inactive: 0.429. For the sequence CCAUGCACAAUUACAAGCUTT against Ret, the z-score is inactive: 1.48. Regarding GGAAAGACACAGAUAAUAATT against Arvcf, the z-score was inactive: -1.21.

For the sequence GGUCACAGACAUUCCCGAATT against Atad2, the z-score is inactive: 0.184.

For GGAGACUCAGGAAAAAAUUTT against Olfr1424, the z-score is inactive: 0.238.

Regarding GAUAAAAUCGGACUGAUAATT against Olfr1079, the z-score was inactive: 0.959. Turning to GCCUUAAUGAGGCUACUAGTT against Art2a, the z-score is inactive: -0.0101. On to GGCAAAAGAACAAGAAACUTT against Orc1l, for which the z-score was inactive: -0.536. Consider “GGAAGUGACCUGUCUGAAGTT against D7Bwg0611e”, for which the z-score was inactive: -0.874. GGUGCAGAGAAGAACAAGATT against Inpp1: the z-score was inactive: 2.6.

Take GGGUGACCUUGAUUCACACTT against Cda: the z-score was inactive: 0.199. On to “GGUGGAUAUCCUAUAACUATT against 4930402H24Rik”, for which the z-score is inactive: 0.631. Consider GCCAUACUACGACAUGACATT against Sstr2, for which the z-score is inactive: 0.21.

On to CCCGUGUCUAUGUGAAAAUTT against Olfr1015, for which the z-score is inactive: -2.5. Regarding GGCCUAGCUGUAUGUUUAGTT against Tex19, the z-score is inactive: -0.148.

Consider CCAAAGAGAUAUCCCUCCCTT against Olfr1350, for which the z-score was inactive: -0.954. Consider GAGCAGAACCGCAUCAUAUTT against Ucn, for which the z-score was inactive: -1.06. For GGGUCAUCGGAACAGAACUTT against Sult3a1, the z-score was inactive: 0.137. The value for “GGUAGUGGGUGUCAAUGCATT against 9330180L21Rik” was inactive: 1.68; that for GGAAAGACUUACCAGAAUATT against Smarca2 was inactive: 0.313. As to GGCAAGAUGCACAAGACUUTT against Cacna1s, the z-score was inactive: -0.328.

As to GGAUAUGCUCAGAGGUUUUTT against Pex11c, the z-score is inactive: 0.312.

Consider GGAUUGCUCUAGCCAUUGUTT against Olfr691, for which the z-score was inactive: 0.116. With GGUCAACAGUUACAUCGAGTT against Vps33a, the z-score is inactive: -0.77. Take CCUGAACUAUAGAUGGAUUTT against Manba: the z-score was inactive: -0.266. “CCGACUGCUUAAUUACAAGTT against 1700007I06Rik”: the z-score is inactive: 0.104. Consider GGACCAGAAACGCAUGCUUTT against BC049812, for which the z-score was inactive: 0.257. In the case of CCUGCUCAGAUCCACAGAATT against Dub2 it was inactive: -1.14. In the case of “GGCUACCAGAAAGAUGUGUTT against D030010E02Rik” it was inactive: -1.48. Take “GGAGUUUCGCAUGAGCCUGTT against 1300007L22Rik”: the z-score was inactive: 0.888. Turning to GGUCCAAAACCAUCAGAAGTT against Plekha5, the z-score is inactive: 0.831. GGCAAAAAAAAAAUGCCCATT against Sox2: the z-score was inactive: -0.16. Consider “CAGAAUUCAGAUAAUCUUGTT against 9230002F21Rik”, for which the z-score was inactive: 0.209. In the case of GGUCAAAACACCUUUAGAUTT against Trip4 it was inactive: 0.0551. Turning to CGAGCAUGAAAAUUCGGUUTT against Neurog1, the z-score was inactive: 0.206. Take GCACAUUACUCCUUAUUCUTT against Olfr74: the z-score is inactive: 0.396.

Turning to “GCUAUGUCAUCGAGGUCCUTT against 2310010M20Rik”, the z-score was inactive: 0.755. As to GGGUAGACUGUCAGAUUUUTT against Tmc5, the z-score was inactive: -0.124. GGAUCUCGGGAAAAAGUUGTT against Spesp1: the z-score is inactive: -0.197.

Take CCAAUGACUUCUGGUUAGATT against Tdpoz1: the z-score is inactive: -0.311. “GCACUGAACUUUCCUGACCTT against 2700038C09Rik”: the z-score is inactive: 0.661. As for “GGACUUUGGACUUUCUAUUTT against 2810013M15Rik”, the z-score was inactive: -1.1.

Take “GGGCUCUUUCUACCAAUGUTT against A630077B13Rik”: the z-score was inactive: 0.843.

For GGAGCAUCCACACUUUGUUTT against Hif3a, the z-score was inactive: -2.57. In the case of “GGAAAGCUCUUUGUGUCGGTT against 9130427A09Rik”, the z-score was inactive: -0.287. The value for GGAACUUGGUAUUUAGAUCTT against Rhot2 was inactive: 1.66; that for CCGUGGAUAACAUGAGCAUTT against Agpat2 was inactive: 2. In the case of “GGAAGUCAGGUAGUAAAACTT against 2810429K17Rik”, the z-score was inactive: -0.849. In the case of GCACCACAAUGAAACGUGCTT against Cacng1 it was inactive: -0.26.

Turning to GGACCUACCAGAAUCUGGUTT against Phip, the z-score was inactive: 2.04. Take CGGUAUCUUGGUCAACCUGTT against Asahl: the z-score is inactive: -0.0295. Regarding CCUGGAUGGAUUUAAGGCATT against Abcd4, the z-score is inactive: 0.639.

Regarding “GGAGUCAUGGAUGAAUGUATT against 3110057O12Rik”, the z-score was inactive: -2.76. The value for GGAUGAAGAUGGAGACAUGTT against Lmx1b was inactive: 0.668.

In the case of “GGGUCUGAUUGUCAAGGGATT against 1700020C08Rik”, the z-score is inactive: -0.0449. For UUAUGACACGCUCAAACUATT against AY238603, the z-score is inactive: 1.81. For the sequence “GCAGAUGUGGCAUCUUCCATT against 6430596G11Rik”, the z-score was inactive: -0.159. Regarding GGUACUACUUUCUAAUUCATT against Vcam1, the z-score is inactive: 0.156. On to GCUAAGUACGUUCAUGGCATT against Gba, for which the z-score is inactive: 3.18.

GGUCAACUAGCAGAAACCATT against Mass1: the z-score was inactive: 1.6. As for “GGACUUUCUGAGUAAGAAUTT against 2810002N01Rik”, the z-score was inactive: 0.427. Regarding CCUAUCCUACUGUCAAGAUTT against Nfkb2, the z-score is inactive: 1.76.

Take CCGAUGUGCUCACUAUCACTT against Mrps35: the z-score is inactive: 0.734.

As to “GGACAGUUCAGAACAAAUUTT against 9430093N24Rik”, the z-score was inactive: -1.45. As to GGAAUUUUCUCAUGAUCUUTT against Krtap3-3, the z-score was inactive: -0.472. Turning to GCCCUAGGUGUAAUGAUAGTT against Amd1, the z-score is inactive: -1.72. On to GGGUUCCAGAUACUUUCUUTT against Zfp261, for which the z-score is inactive: -0.268.

For the sequence GGUAAAGACGUAAACUUACTT against Rhpn2, the z-score is inactive: 1.35.

With “GGUUUCUGCCCAGAGUCUATT against 2010106E10Rik”, the z-score was inactive: -1.47.

For GGUAUCACUACUUUUUAGUTT against Prnpip1, the z-score is inactive: 0.665. For GGUACUGUUGCGCUUUGCUTT against Narfl, the z-score is inactive: -1.5. In the case of CGACUUGUCAUGAACCAAATT against Atrx, the z-score is inactive: -2.25.

In the case of GGCAUUCUCUAUGAAGCUGTT against Vrk3, the z-score was inactive: 0.572. In the case of GGUUGAGAAACCAAUUUCATT against Retnlb, the z-score is inactive: 0.21. In the case of GCUGAUCGUGCAGAUUUUATT against Chn2 it was inactive: 0.488; in that of GGGCGACCUUUGAUUGACATT against Etv5, inactive: 2.34. The value for GCUAAUACGAUCACUAGCUTT against Gdf6 was inactive: 0.395; that for GGUCUAUCCUACCUCAAAGTT against Prlpc3 was inactive: 1.59; that for GGUAGACCUUUUGUCACGGTT against Lass2 was inactive: -1.29.

For GCUUUACUCCAGAUGGAUCTT against Chaf1b, the z-score is inactive: -1.68.

For the sequence “CGCCUUAUAAUAUACCUAUTT against 9030425E11Rik”, the z-score is inactive: 1.8. As for GGUCAUUUGAUCUUCUGGUTT against Cacybp, the z-score was inactive: -0.153.
